{"source": "patent US5334589A", "about": "“Quinolone carboxylic acid--metal ion--acid complexes” (Abbott Laboratories, priority 1992, dated 1994)", "origin": "cited, not measured here", "conditions": "method of Preiss et al., European Patent Application No. 287 926; cited from earlier work", "data": [{"smiles": "O=C(O)c1cn(C2CC2)c2cc(N3CCNCC3)c(F)cc2c1=O", "note": "[ciprofloxacin]", "values": [{"measurement": "stability of pharmacological solutions", "value": "stable pharmacological solutions"}]}]}
